{
  "source": "PubChem BioAssay AID248",
  "about": "(DTP/NCI, 2004)",
  "tested_on": "L1210 leukemia ip in BDF1 mice, survival T/C",
  "assay": "NCI In Vivo Anticancer Drug Screen. Data for tumor model L1210 Leukemia (intraperitoneal) in B6D2F1 (BDF1) mice",
  "conditions": "T/C endpoint: mean survival time, higher T/C = longer survival",
  "key": {"[1]": {"conditions": "dose: 100.0 mg/kg/injection, schedule: Q01DX001 (ip), vehicle: carboxymethylcellulose (CMC)"}, "[2]": {"conditions": "dose: 200.0 mg/kg/injection, schedule: Q01DX001 (ip), vehicle: carboxymethylcellulose (CMC)"}, "[3]": {"conditions": "dose: 400.0 mg/kg/injection, schedule: Q01DX001 (ip), vehicle: carboxymethylcellulose (CMC)"}, "[4]": {"conditions": "dose: 200.0 mg/kg/injection, schedule: Q04DX003 (ip), vehicle: Klucel (hydroxypropylcellulose) (HPC)"}, "[5]": {"conditions": "dose: 400.0 mg/kg/injection, schedule: Q04DX003 (ip), vehicle: Klucel (hydroxypropylcellulose) (HPC)"}, "[6]": {"conditions": "dose: 50.0 mg/kg/injection, schedule: Q01DX009 (ip), vehicle: Klucel (hydroxypropylcellulose) (HPC)"}, "[7]": {"conditions": "dose: 100.0 mg/kg/injection, schedule: Q01DX009 (ip), vehicle: saline with Tween-80"}, "[8]": {"conditions": "dose: 400.0 mg/kg/injection, schedule: Q01DX009 (ip), vehicle: saline with Tween-80"}, "[9]": {"conditions": "dose: 400.0 mg/kg/injection, schedule: Q04DX003 (ip), vehicle: saline"}, "[10]": {"conditions": "dose: 200.0 mg/kg/injection, schedule: Q01DX001 (ip), vehicle: saline"}, "[11]": {"conditions": "dose: 400.0 mg/kg/injection, schedule: Q01DX001 (ip), vehicle: saline"}},
  "note": "The list does not hold the whole screen: it gathers tests that were run many times, whatever their T/C, doses with no T/C, and many T/C values between a quarter and a half above the control. Further doses and runs are listed elsewhere. T/C: endpoint of the treated group in % of that of the vehicle group. Some entries give survivors of the animals treated and no T/C: the source files T/C as zero there, which appears to mark a toxic dose or a test without result, not a measured value. Some doses without a T/C left all or most animals alive at the check, yet need not have been tolerated: survival well below the control is almost never listed, so the zero probably covers shortened survival too. Survivors were counted at the toxicity check, usually on the fifth day, unless a day is given; later deaths do not show. Schedules are NCI's codes, taken here to give the interval after Q, in days (D) or hours (H), and the number of doses after X. Where survival is the endpoint, this PubChem deposit counts one and a half times the control or more as active, and values a quarter to a half above the control carry no call in these data; other NCI protocols may use other cut-offs.",
  "data": [
    {"smiles": "COc1cc2c(c(OC)c1OC)-c1ccc(OC)c(=O)cc1C(=O)CC2", "values": [
      {"measurement": "survivor count", "setting": "[1]", "result": "1 of 4"},
      {"measurement": "survivor count", "setting": "[2]", "result": "0 of 4"},
      {"measurement": "survivor count", "setting": "[3]", "result": "0 of 4"}
    ]},
    {"smiles": "CCOC(=O)C(C)CC(C)(C(=O)OCC)C(=O)OCC", "note": "(configuration not stated)", "values": [
      {"measurement": "survivor count", "setting": "[4]", "result": "2 of 6"},
      {"measurement": "survivor count", "setting": "[5]", "result": "1 of 6"}
    ]},
    {"smiles": "CC(C)NC(=O)CN=NNc1nc[nH]c1C(N)=O", "values": [
      {"measurement": "survivor count", "setting": "dose: 100.0 mg/kg/injection, schedule: Q01DX001 (ip), vehicle: Klucel (hydroxypropylcellulose) (HPC)", "result": "3 of 6"},
      {"measurement": "survivor count", "setting": "dose: 200.0 mg/kg/injection, schedule: Q01DX001 (ip), vehicle: Klucel (hydroxypropylcellulose) (HPC)", "result": "1 of 6"},
      {"measurement": "survivor count", "setting": "dose: 400.0 mg/kg/injection, schedule: Q01DX001 (ip), vehicle: Klucel (hydroxypropylcellulose) (HPC)", "result": "0 of 6"}
    ]},
    {"smiles": "Cn1c(=O)c2c(ncn2CCOC(=O)C(C)(C)Oc2ccc(Cl)cc2)n(C)c1=O", "values": [
      {"measurement": "survivor count", "setting": "[6]", "result": "1 of 3"}
    ]},
    {"smiles": "CCCCCCCc1nc(/N=N/N(C)C)c(C(N)=O)[nH]1", "values": [
      {"measurement": "T/C", "setting": "[7]", "result": "130 % of control"},
      {"measurement": "survivor count", "setting": "[8]", "result": "0 of 6"}
    ]},
    {"smiles": "CN(C)C(=O)c1ccc[n+](Cc2ccc(Cl)c(Cl)c2)c1", "values": [
      {"measurement": "survivor count", "setting": "dose: 200.0 mg/kg/injection, schedule: Q04DX003 (ip), vehicle: saline", "result": "4 of 6"},
      {"measurement": "survivor count", "setting": "[9]", "result": "0 of 6"}
    ]},
    {"smiles": "NC(=S)N/N=C1\\C=CCCC1", "values": [
      {"measurement": "survivor count", "setting": "[1]", "result": "0 of 4"},
      {"measurement": "survivor count", "setting": "[2]", "result": "0 of 4"},
      {"measurement": "survivor count", "setting": "[3]", "result": "0 of 4"}
    ]},
    {"smiles": "Cc1cc(OC(=O)c2ccc(N)cc2)ccc1C1=NCC(C)S1", "note": "(configuration not stated)", "values": [
      {"measurement": "survivor count", "setting": "dose: 100.0 mg/kg/injection, schedule: Q04DX002 (ip), vehicle: DMSO", "result": "3 of 3"},
      {"measurement": "survivor count", "setting": "dose: 200.0 mg/kg/injection, schedule: Q04DX002 (ip), vehicle: DMSO", "result": "3 of 3"},
      {"measurement": "survivor count", "setting": "dose: 400.0 mg/kg/injection, schedule: Q04DX002 (ip), vehicle: DMSO", "result": "2 of 3"}
    ]},
    {"smiles": "CC(C)CC(C=NCC(CCN(C)C)(CC(C)C)c1cccc2ccccc12)(CCN(C)C)c1cccc2ccccc12", "note": "(configuration not stated)", "values": [
      {"measurement": "survivor count", "setting": "[6]", "result": "0 of 6"},
      {"measurement": "survivor count", "setting": "dose: 100.0 mg/kg/injection, schedule: Q04DX003 (ip), vehicle: Klucel (hydroxypropylcellulose) (HPC)", "result": "3 of 6"},
      {"measurement": "survivor count", "setting": "[4]", "result": "0 of 6"},
      {"measurement": "survivor count", "setting": "[5]", "result": "0 of 6"}
    ]},
    {"smiles": "C/C=C/C=C/COC(=O)C(C)(C)C", "values": [
      {"measurement": "T/C", "setting": "dose: 200.0 mg/kg/injection, schedule: Q04DX002 (ip), vehicle: saline", "result": "125 % of control"}
    ]},
    {"smiles": "NNC(=O)c1ccncc1", "values": [
      {"measurement": "survivor count", "setting": "[10]", "result": "3 of 6"},
      {"measurement": "survivor count", "setting": "dose: 200.0 mg/kg/injection, schedule: Q01DX009 (ip), vehicle: saline", "result": "3 of 6"},
      {"measurement": "survivor count", "setting": "[11]", "result": "0 of 6"},
      {"measurement": "survivor count", "setting": "[9]", "result": "0 of 4"}
    ]},
    {"smiles": "O=C(Nc1ccc(NC(=O)c2ccccc2)c2ccccc12)c1ccccc1", "values": [
      {"measurement": "survivor count", "setting": "[7]", "result": "6 of 6"},
      {"measurement": "survivor count", "setting": "dose: 200.0 mg/kg/injection, schedule: Q01DX009 (ip), vehicle: saline with Tween-80", "result": "6 of 6"},
      {"measurement": "survivor count", "setting": "[8]", "result": "6 of 6"}
    ]},
    {"smiles": "COC1OCC(COC(=O)c2ccc([N+](=O)[O-])cc2)C1OC(=O)c1ccc([N+](=O)[O-])cc1", "note": "(configuration not stated)", "values": [
      {"measurement": "survivor count", "setting": "[3]", "result": "4 of 4"}
    ]},
    {"smiles": "CCCCCC(CN(C)C)C(=O)/C=C/c1ccc(Cl)c(Cl)c1", "note": "(configuration not stated)", "values": [
      {"measurement": "survivor count", "setting": "dose: 50.0 mg/kg/injection, schedule: Q04DX003 (ip), vehicle: acetone", "result": "3 of 6"},
      {"measurement": "survivor count", "setting": "dose: 100.0 mg/kg/injection, schedule: Q04DX003 (ip), vehicle: acetone", "result": "0 of 6"},
      {"measurement": "survivor count", "setting": "dose: 200.0 mg/kg/injection, schedule: Q04DX003 (ip), vehicle: acetone", "result": "0 of 6"},
      {"measurement": "survivor count", "setting": "dose: 400.0 mg/kg/injection, schedule: Q04DX003 (ip), vehicle: acetone", "result": "0 of 6"}
    ]},
    {"smiles": "O=C1C=CC(=O)c2[nH]c(=O)ccc21", "values": [
      {"measurement": "survivor count", "setting": "dose: 20.0 mg/kg/injection, schedule: Q01DX001 (ip), vehicle: saline", "result": "0 of 4"},
      {"measurement": "survivor count", "setting": "dose: 40.0 mg/kg/injection, schedule: Q01DX001 (ip), vehicle: saline", "result": "0 of 4"},
      {"measurement": "survivor count", "setting": "dose: 80.0 mg/kg/injection, schedule: Q01DX001 (ip), vehicle: saline", "result": "0 of 4"},
      {"measurement": "survivor count", "setting": "dose: 100.0 mg/kg/injection, schedule: Q01DX001 (ip), vehicle: saline", "result": "0 of 4"},
      {"measurement": "survivor count", "setting": "[10]", "result": "0 of 4"},
      {"measurement": "survivor count", "setting": "[11]", "result": "0 of 4"}
    ]}
  ]
}
